According to US8741951B2, “Non-steroidal compounds for androgen receptor modulation” (CNR—Consiglio Nazionale delle Ricerche, priority 2009, dated 2014):
The name of at least one read-out is uncertain.

Legend:
[1] = tested on: LNCaP cells; experiment: TUNEL assay (flow cytometry), LNCaP; type: cell-based, human; details: 144 hours at 20.0 μM
[2] = tested on: LNCaP-AR cells; experiment: TUNEL assay (flow cytometry), LNCaP-AR; type: cell-based, human; details: 144 hours at 20.0 μM

C[C@](O)(CS(=O)(=O)c1ccc(F)cc1)C(=O)Nc1ccc(C#N)c(C(F)(F)F)c1 [(R)-Bicalutamide, reference compound]
Apoptotic cells (%) [1]: 2.1%
Apoptotic cells (%) [2]: 5.7%
